Laboratory results: article doi:10.1101/2022.05.13.491370
These are yes or no findings as the source states them, for the method shown. Binding seen in cells or lysates may run through a third protein. Some results given as binding are weak or reduced against the parent protein; the word gives no strength.

Amino acid sequences for entries named in this document (tags omitted). Residues count along the entry.
UniProt Q8BWG9: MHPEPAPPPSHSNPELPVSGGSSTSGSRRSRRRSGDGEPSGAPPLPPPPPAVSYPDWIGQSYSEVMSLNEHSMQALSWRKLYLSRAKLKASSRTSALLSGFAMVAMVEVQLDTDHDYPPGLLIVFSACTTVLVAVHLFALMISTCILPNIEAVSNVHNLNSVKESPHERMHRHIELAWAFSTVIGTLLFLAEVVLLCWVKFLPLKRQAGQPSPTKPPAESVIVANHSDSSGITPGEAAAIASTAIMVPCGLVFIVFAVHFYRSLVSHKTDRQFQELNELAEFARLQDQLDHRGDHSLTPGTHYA
UniProt P70302, residues 23-685: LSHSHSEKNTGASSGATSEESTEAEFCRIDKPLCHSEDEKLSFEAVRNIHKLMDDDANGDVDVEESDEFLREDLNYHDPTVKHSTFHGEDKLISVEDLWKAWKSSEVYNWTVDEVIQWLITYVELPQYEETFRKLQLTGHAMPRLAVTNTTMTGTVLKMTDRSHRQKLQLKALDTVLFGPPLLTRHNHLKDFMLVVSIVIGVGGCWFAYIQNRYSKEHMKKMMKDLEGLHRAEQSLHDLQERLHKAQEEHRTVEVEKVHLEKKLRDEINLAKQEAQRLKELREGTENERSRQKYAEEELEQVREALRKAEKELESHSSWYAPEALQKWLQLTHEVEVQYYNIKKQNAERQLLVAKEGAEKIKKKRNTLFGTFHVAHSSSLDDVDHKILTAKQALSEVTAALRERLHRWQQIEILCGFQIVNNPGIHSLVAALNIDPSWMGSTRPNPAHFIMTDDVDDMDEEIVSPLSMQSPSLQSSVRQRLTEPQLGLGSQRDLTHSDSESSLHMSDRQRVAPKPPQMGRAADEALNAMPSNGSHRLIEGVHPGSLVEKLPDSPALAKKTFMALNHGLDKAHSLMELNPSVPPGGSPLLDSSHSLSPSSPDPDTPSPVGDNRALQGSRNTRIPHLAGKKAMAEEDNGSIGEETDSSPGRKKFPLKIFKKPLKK

Target: YFP-Orai1 (mouse) (UniProt Q8BWG9)
Assay: FRET or BRET

## STIM1-CFP (Stromal interaction molecule 1 fused to CFP) (from UniProt P70302 23-685)
  binding: binds
